PubChem BioAssay AID1259259 | Sanger Institute, 2017

- Assay: 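Kinase silencing that lowers colorectal cancer cell viability alone or with drugs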 (primary screen)
- Cell system: SW1463 human colorectal cancer cells
- Knock-down reagent: siRNA pool against human genes
- Challenge: DMSO vehicle, or one anchor drug: BYL719 at 1 µM, cetuximab at 5 µg/ml, or trametinib at 10 nM
- Measurement: 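Viability relative to control pool 2 (non-targeting) averaged over replicates, robust z-score for knock-down with no drug, and for each anchor drug the mean synergy score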
- Direction: robust z-score, knock-down alone: higher = more viable cells after knock-down; viability, knock-down alone: higher = more viable cells; synergy score with BYL719 and synergy score with cetuximab: higher = stronger synergy (synthetic lethal) with drug
- Hit rule: 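Knock-down called essential when its robust z-score without drug falls below -3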
- Calls: active = essential: viability loss from knock-down alone; inactive = no change from knock-down alone
Here is one part, drawn at random, of 794 reagents tested. 9 of them (1.1%) were called active. 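Calls rest on knock-down alone, not drug synergy; viability values seem capped at 1.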 Unmarked entries are inactive. Further read-outs or replicates are left out here. The record does not give: the amount of reagent, the time to read-out.

| Gene | PubChem SID | robust z-score, knock-down alone | viability, knock-down alone (fraction of control) | synergy score with BYL719 | synergy score with cetuximab |
| --- | --- | --- | --- | --- | --- |
| YES1 (YES proto-oncogene 1, Src family tyrosine kinase) | SID152156078 | 0.36 | 0.951 | 0.135 | 0.0598 |
| ETNK2 (ethanolamine kinase 2) | SID56478982 | 1.13 | 1 | 0 | 0.00849 |
| ALDH18A1 (aldehyde dehydrogenase 18 family member A1) | SID152152799 | 0.72 | 0.974 | 0.169 | 0.147 |
| FLT1 (fms related receptor tyrosine kinase 1) | SID152149290 | 0.303 | 0.947 | 0.0465 | 0.205 |
| PIM1 (Pim-1 proto-oncogene, serine/threonine kinase) | SID56478736 | -0.159 | 0.917 | -0.0826 | -0.108 |
| STK32B (serine/threonine kinase 32B) | SID56478812 | -1.12 | 0.855 | -0.00295 | -0.00817 |
| HCK (HCK proto-oncogene, Src family tyrosine kinase) | SID135620622 | -2.32 | 0.779 | -0.0327 | -0.0119 |
| GRK6 (G protein-coupled receptor kinase 6) | SID135620853 | -0.453 | 0.899 | -0.101 | 0.122 |
| CDK8 (cyclin dependent kinase 8) | SID56478602 | 1.13 | 1 | 0.0614 | 0.177 |
| GRK1 (G protein-coupled receptor kinase 1) | SID152156219 | -0.612 | 0.888 | 0.0498 | 0.0132 |
| MAST1 (microtubule associated serine/threonine kinase 1) | SID135620865 | 0.109 | 0.935 | -0.039 | -0.0908 |
| PRKACA (protein kinase cAMP-activated catalytic subunit alpha) | SID135620859 | 0.557 | 0.963 | 0.0949 | -0.0628 |
| EPHA7 (EPH receptor A7) | SID152149990 | 1.13 | 1 | 0.0149 | -0.0272 |
| MATK (megakaryocyte-associated tyrosine kinase) | SID152153842 | 1.13 | 1 | 0.0236 | 0.0698 |
| CDK10 (cyclin dependent kinase 10) | SID152152801 | 0.951 | 0.989 | 0.0484 | -0.0382 |
| GSK3B (glycogen synthase kinase 3 beta) | SID56478468 | 1.13 | 1 | 0 | 0.176 |
| PKIB (cAMP-dependent protein kinase inhibitor beta) | SID56479212 | -0.286 | 0.909 | -0.0907 | -0.115 |
| STK31 (serine/threonine kinase 31) | SID135620977 | 0.268 | 0.945 | 0.0712 | 0.191 |
| CASK (calcium/calmodulin dependent serine protein kinase) | SID56479000 | -0.151 | 0.918 | 0.0254 | -0.042 |
| CKM (creatine kinase, M-type) | SID56479085 | 1.12 | 1 | 0.0612 | 0.107 |

Look-ups from the entries so far.
Result of ETNK2 (ethanolamine kinase 2) [SID56478982] under “robust z-score, knock-down alone”: 1.13
PKIB (cAMP-dependent protein kinase inhibitor beta) [SID56479212], robust z-score, knock-down alone → -0.286
Value of PRKACA (protein kinase cAMP-activated catalytic subunit alpha) [SID135620859] under “synergy score with BYL719”: 0.0949
